Laboratory results taken from US20110060021A1 (priority 2009, published 2011).
At least one compound was matched to its structure with a doubt left.

Test system: NCI-60 cancer cell lines
Settings: five-dose assay; printed as power of ten

| Structure (SMILES) | GI50, median concentration | LC50, median concentration | TGI50, median concentration for total growth inhibition |
| --- | --- | --- | --- |
| CCCC[C@H]1NC(=O)C[C@H]2/C=C/CCSSC[C@@H](NC1=O)C(=O)N[C@H]([C@@H](C)CC)[C@@H](O)CC(=O)O2 [thailandepsin B] | ≤ 10^−7.93 M | ≤ 10^5.16 M | ≤ 10^−6.58 M |
| CC[C@H](C)[C@H]1NC(=O)[C@H]2CSSCC/C=C/[C@H](CC(=O)N[C@H](CCSC)C(=O)N2)OC(=O)C[C@@H]1O [thailandepsin A] | ≤ 10^−8.25 M | ≤ 10^−5.41 M | ≤ 10^−6.9 M |
